From the supplement of paper PMC4604168 (melanoma cell lines)
Some of the results follow. Single values are uncertain, as repeats are few or missing.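 Imaging used 1,536-well plates; nuclei positive for cleaved PARP by antibody were divided by total DNA-stained nuclei to yield the apoptosis fraction. Doses for screening kept most cells viable, and cell lines differ markedly in resting and induced cleaved-PARP levels.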

Columns and labels:
Test in all cases: cleaved PARP positive nuclei fraction relative to DMSO control; melanoma cells; higher = more apoptosis
Conditions in all cases: library dose: low library concentration; 72 h
501Mel = tested on: 501Mel
A101D = tested on: A101D
A2058 = tested on: A2058
A375 = tested on: A375
C32 = tested on: C32
CBRC008 = tested on: CBRC008 (line from a melanoma biopsy)
CBRC014 = tested on: CBRC014 (line from a melanoma biopsy)
CBRC016 = tested on: CBRC016 (line from a melanoma biopsy)
CBRC017 = tested on: CBRC017 (line from a melanoma biopsy)

Compound	cleaved PARP positive nuclei fraction (501Mel) [%]	cleaved PARP positive nuclei fraction (A101D) [%]	cleaved PARP positive nuclei fraction (A2058) [%]	cleaved PARP positive nuclei fraction (A375) [%]	cleaved PARP positive nuclei fraction (C32) [%]	cleaved PARP positive nuclei fraction (CBRC008) [%]	cleaved PARP positive nuclei fraction (CBRC014) [%]	cleaved PARP positive nuclei fraction (CBRC016) [%]	cleaved PARP positive nuclei fraction (CBRC017) [%]
Cn1sc(=O)n(Cc2ccccc2)c1=O + NC1(c2ccc(-c3nc4ccn5c(=O)[nH]nc5c4cc3-c3ccccc3)cc2)CCC1 [MK2206] (first compound 0.4 µM, partner dose 0.4 µM)	96.2	99.7	153	53	71.9	88.4	97.5	119	104
NC(=O)c1ccc(N(C(N)=O)c2c(F)cccc2F)nc1-c1ccc(F)cc1F + Cc1nc(Nc2ncc(C(=O)Nc3c(C)cccc3Cl)s2)cc(N2CCN(CCO)CC2)n1 [dasatanib] (first compound 0.4 µM, partner dose 0.004 µM)	138	50.9	281	166	84.7	34.3	101	73.8	175
CC(=O)O[C@@]12CO[C@@H]1C[C@H](O)[C@@]1(C)C(=O)[C@H](O)C3=C(C)[C@@H](OC(=O)[C@H](O)[C@@H](NC(=O)OC(C)(C)C)c4ccccc4)C[C@@](O)([C@@H](OC(=O)c4ccccc4)[C@H]21)C3(C)C [Docetaxel] + Cn1nnc2c(C(N)=O)ncn2c1=O [temozolomide] (first compound 0.0001 µM, partner dose 2 µM)	271	90.3	4720	7220	96.9	232	223	137	254
Cn1sc(=O)n(Cc2ccccc2)c1=O + Nc1ncn([C@H]2C[C@H](O)[C@@H](CO)O2)c(=O)n1 [decitabine] (first compound 0.4 µM, partner dose 0.1 µM)	152	66.9	285	194	70.1	147	95	155	85.2
CC(=O)O[C@@]12CO[C@@H]1C[C@H](O)[C@@]1(C)C(=O)[C@H](O)C3=C(C)[C@@H](OC(=O)[C@H](O)[C@@H](NC(=O)OC(C)(C)C)c4ccccc4)C[C@@](O)([C@@H](OC(=O)c4ccccc4)[C@H]21)C3(C)C [Docetaxel] + C=C(c1ccc(C(=O)O)cc1)c1cc2c(cc1C)C(C)(C)CCC2(C)C [Bexarotene] (first compound 0.0001 µM, partner dose 2 µM)	252	162	2160	2990	81.9	561	241	193	314
CN(c1ncccc1CNc1nc(Nc2ccc3c(c2)CC(=O)N3)ncc1C(F)(F)F)S(C)(=O)=O + C=CCNC1=C2C[C@@H](C)C[C@H](OC)[C@H](O)[C@@H](C)/C=C(\C)[C@H](OC(N)=O)[C@@H](OC)/C=C\C=C(/C)C(=O)NC(=CC1=O)C2=O [Tanespimycin] (first compound 0.08 µM, partner dose 0.002 µM)	87.1	55.5	176	302	51.7	84.9	90.4	67.3	83.2
C[C@@H](N)c1ccc(C(=O)Nc2ccnc3[nH]ccc23)cc1 + Cn1c(=O)n(-c2ccc(C(C)(C)C#N)cc2)c2c3cc(-c4cnc5ccccc5c4)ccc3ncc21 [NVP-BEZ235] (first compound 0.4 µM, partner dose 0.004 µM)	98.8	55.1	141	223	80.5	289	95	74.1	155
CCN(CC)CCNC(=O)c1c(C)[nH]c(/C=C2\C(=O)Nc3ccc(F)cc32)c1C [sunitinib] + C=CCNC1=C2C[C@@H](C)C[C@H](OC)[C@H](O)[C@@H](C)/C=C(\C)[C@H](OC(N)=O)[C@@H](OC)/C=C\C=C(/C)C(=O)NC(=CC1=O)C2=O [Tanespimycin] (first compound 0.4 µM, partner dose 0.002 µM)	862	105	264	84.6	243	72.7	85.6	47.8	102
CCN(CC)CCNC(=O)c1c(C)[nH]c(/C=C2\C(=O)Nc3ccc(F)cc32)c1C [sunitinib] + Clc1ccc(Nc2nnc(Cc3ccncc3)c3ccccc23)cc1 [vatalanib] (first compound 0.4 µM, partner dose 2 µM)	425	60.5	114	257	92.6	233	74.7	35.8	85.5
CS(=O)(=O)c1ccc(C(=O)Nc2ccc(Cl)c(-c3ccccn3)c2)c(Cl)c1 [vismodegib] + Nc1nc(F)nc2c1ncn2[C@@H]1O[C@H](CO)[C@@H](O)[C@@H]1O [fludarabine] (first compound 1 µM, partner dose 0.2 µM)	15000	43.8	85.3	5510	144	67.2	113	92.3	97.9
CN(c1ncccc1CNc1nc(Nc2ccc3c(c2)CC(=O)N3)ncc1C(F)(F)F)S(C)(=O)=O + Cn1c(=O)n(-c2ccc(C(C)(C)C#N)cc2)c2c3cc(-c4cnc5ccccc5c4)ccc3ncc21 [NVP-BEZ235] (first compound 0.08 µM, partner dose 0.004 µM)	145	108	136	215	88.8	107	139	57.9	199

Record cards, as listed above. Order of values: cleaved PARP positive nuclei fraction (501Mel) [%] | cleaved PARP positive nuclei fraction (A101D) [%] | cleaved PARP positive nuclei fraction (A2058) [%] | cleaved PARP positive nuclei fraction (A375) [%] | cleaved PARP positive nuclei fraction (C32) [%] | cleaved PARP positive nuclei fraction (CBRC008) [%] | cleaved PARP positive nuclei fraction (CBRC014) [%] | cleaved PARP positive nuclei fraction (CBRC016) [%] | cleaved PARP positive nuclei fraction (CBRC017) [%]
CC(=O)O[C@@]12CO[C@@H]1C[C@H](O)[C@@]1(C)C(=O)[C@H](O)C3=C(C)[C@@H](OC(=O)[C@H](O)[C@@H](NC(=O)OC(C)(C)C)c4ccccc4)C[C@@](O)([C@@H](OC(=O)c4ccccc4)[C@H]21)C3(C)C [Docetaxel] + C=C(c1ccc(C(=O)O)cc1)c1cc2c(cc1C)C(C)(C)CCC2(C)C [Bexarotene] (first compound 0.0001 µM, partner dose 2 µM) as listed: 252 | 162 | 2160 | 2990 | 81.9 | 561 | 241 | 193 | 314
C[C@@H](N)c1ccc(C(=O)Nc2ccnc3[nH]ccc23)cc1 + Cn1c(=O)n(-c2ccc(C(C)(C)C#N)cc2)c2c3cc(-c4cnc5ccccc5c4)ccc3ncc21 [NVP-BEZ235] (first compound 0.4 µM, partner dose 0.004 µM) as listed: 98.8 | 55.1 | 141 | 223 | 80.5 | 289 | 95 | 74.1 | 155
